These are yes or no findings as the source states them, for the method shown. In cells and extracts the contact can be indirect. Some results given as binding are weak or reduced against the parent protein; the word gives no strength. For part of these data: Tags and fused reporters may be left off the sequences shown.
T1: biotinylated phosphorylated S139 H2AX C-terminal tail with Y142L mutation (human)
T1 sequence (peptide, biotin on the N-terminus; phosphoserine (pS) at S139): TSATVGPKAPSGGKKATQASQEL

Sequences of proteins named here, by UniProt entry; tags and fusion partners are left off. Residues count along the entry.
UniProt Q12888, residues 1220-1639: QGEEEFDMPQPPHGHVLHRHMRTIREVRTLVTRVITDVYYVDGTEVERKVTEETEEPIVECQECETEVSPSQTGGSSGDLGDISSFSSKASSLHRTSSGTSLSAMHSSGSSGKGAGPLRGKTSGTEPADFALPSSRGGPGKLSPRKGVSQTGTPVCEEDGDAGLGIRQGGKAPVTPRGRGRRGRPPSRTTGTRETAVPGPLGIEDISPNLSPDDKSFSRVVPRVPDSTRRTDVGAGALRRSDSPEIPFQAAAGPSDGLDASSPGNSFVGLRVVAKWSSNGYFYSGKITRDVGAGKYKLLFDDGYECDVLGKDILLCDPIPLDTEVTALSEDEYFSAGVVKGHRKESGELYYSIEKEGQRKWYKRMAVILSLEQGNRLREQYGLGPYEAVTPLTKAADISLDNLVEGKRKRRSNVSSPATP

T2: biotinylated phosphorylated S139 H2AX C-terminal tail peptide (human)
T2 sequence (peptide, biotin on the N-terminus; phosphoserine (pS) at S139): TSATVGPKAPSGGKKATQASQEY

B1: Myc-Crb2 a.a. 108–508 (domain or fragment, UniProt P87074 108-508)
chain: SPYSPKQTHTVLKRLYDRQSVISDHEKLLTPQNVSNSSQILSPFTSLLPSTLSTLKDTPLSVSQNEKNLETVGEVLVPETVAQHRTKFYDYTLDEMENETESGQVETTPTRLATSLGSPVLYGRVESTPPAFLPETSEKQYKRKFSFTEPSSEKVDNTETKFSKKTKNINDENFPNPFNVISSYETSASPSTVIDQSSQVSSIFVNKRLRKSVNNQAISRSDSLSLDTPKIDSLFTRASIKPLKPSQSPNSRRSFKNRVLAFFKGYPSFYYPATLVAPVHSAVTSSIMYKVQFDDATMSTVNSNQIKRFFLKKGDVVQSTRLGKIKHTVVKTFRSTNEQLSLIAVDALNNDMVILAHGEIEVTVPISTIYVAPVNIRRFQGRDLSFSTLKDMKFEETSFLP

Experiments:
[1] = molecular target: T1, biotinylated phosphorylated S139 H2AX C-terminal tail with Y142L mutation (human); experiment: pull-down; HEK293T lysates (myc-tagged expression vectors, NETN buffer) incubated with 2.5 μg biotinylated peptide and 10 μL streptavidin beads, 1 h at 4 °C; washed three times with NETN; western blot; only the target purified
[2] = molecular target: T2, biotinylated phosphorylated S139 H2AX C-terminal tail peptide (human); experiment: as above

Molecule	binding [1]	binding [2]
Myc-53BP1 IRIF formation fragment a.a. 1220-1639 (from UniProt Q12888 1220-1639) (domain or fragment)	binds	binds
B1	–	no binding
